Values from PubChem BioAssay AID1904 (GNF, 2009)
This is not the whole library: the list holds selected reagents. 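Lists only primary-screen hits; phenotype classes come from fitted traces, and the underlying luminescence values are not given.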

Assay: 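Gene silencing that lengthens or shortens period, or boosts amplitude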 (follow-up of hits)
Cells: human U2OS osteosarcoma cells stably expressing a destabilised luciferase driven by the Bmal1 promoter
Knock-down reagent: siRNA pair against human genes, 12.5 nM (two siRNAs, 0.5 pmol each, per well)
Duration: about 3 days after transfection, then luminescence recorded for about 4 days
Read-out: 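Bmal1 reporter light output measured every 2 hours over several days, detrended, then fitted to give period and amplitude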
Call rule: 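Active when retesting with individual siRNAs reproduced the period or amplitude change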
Meaning of the calls: active = confirmed by single siRNAs; inactive = not confirmed

gene knocked down	PubChem SID	clock phenotype class	confirmed with single siRNAs	outcome
ICAM5	SID85114811	longer clock period; seen with two independent siRNA pairs for the gene	phenotype not reproduced by individual siRNAs	inconclusive
ICAM5	SID85125635	longer clock period; seen with two independent siRNA pairs for the gene	phenotype not reproduced by individual siRNAs	inconclusive
CSNK2A1	SID85105588	longer clock period; seen with two independent siRNA pairs for the gene	phenotype reproduced by individual siRNAs	active
CSNK2A1	SID85112811	longer clock period; seen with two independent siRNA pairs for the gene	phenotype reproduced by individual siRNAs	active
COX7B	SID85113489	longer clock period; seen with two independent siRNA pairs for the gene	phenotype reproduced by individual siRNAs	active
COX7B	SID85124313	longer clock period; seen with two independent siRNA pairs for the gene	phenotype reproduced by individual siRNAs	active
PWP2H	SID85114371	longer clock period; seen with two independent siRNA pairs for the gene	phenotype reproduced by individual siRNAs	active
PWP2H	SID85125195	longer clock period; seen with two independent siRNA pairs for the gene	phenotype reproduced by individual siRNAs	active
GRM5	SID85104558	longer clock period; seen with two independent siRNA pairs for the gene	phenotype reproduced by individual siRNAs	active
GRM5	SID85111781	longer clock period; seen with two independent siRNA pairs for the gene	phenotype reproduced by individual siRNAs	active
SUCNR1	SID85104921	longer clock period; seen with two independent siRNA pairs for the gene	phenotype reproduced by individual siRNAs	active
SUCNR1	SID85112144	longer clock period; seen with two independent siRNA pairs for the gene	phenotype reproduced by individual siRNAs	active
C22orf18	SID85103622	shorter clock period; seen with two independent siRNA pairs for the gene	phenotype not reproduced by individual siRNAs	inconclusive
C22orf18	SID85110845	shorter clock period; seen with two independent siRNA pairs for the gene	phenotype not reproduced by individual siRNAs	inconclusive
DCLRE1A	SID85101969	longer clock period; seen with two independent siRNA pairs for the gene	phenotype reproduced by individual siRNAs	active
DCLRE1A	SID85109192	longer clock period; seen with two independent siRNA pairs for the gene	phenotype reproduced by individual siRNAs	active
APPBP1	SID85122746	longer clock period; seen with two independent siRNA pairs for the gene	phenotype reproduced by individual siRNAs	active
MRGPRE	SID85103861	longer clock period; seen with two independent siRNA pairs for the gene	phenotype reproduced by individual siRNAs	active
MRGPRE	SID85111084	longer clock period; seen with two independent siRNA pairs for the gene	phenotype reproduced by individual siRNAs	active
B4GALT2	SID85122862	shorter clock period; seen with two independent siRNA pairs for the gene	phenotype reproduced by individual siRNAs	active
UBE2B	SID85101445	longer clock period; seen with two independent siRNA pairs for the gene	phenotype reproduced by individual siRNAs	active
UBE2B	SID85108668	longer clock period; seen with two independent siRNA pairs for the gene	phenotype reproduced by individual siRNAs	active
INPP5D	SID85105303	higher rhythm amplitude; seen with one siRNA pair in duplicate wells	phenotype not reproduced by individual siRNAs	inconclusive
INPP5D	SID85112526	higher rhythm amplitude; seen with one siRNA pair in duplicate wells	phenotype not reproduced by individual siRNAs	inconclusive
LSM7	SID85117033	longer clock period; seen with two independent siRNA pairs for the gene	phenotype reproduced by individual siRNAs	active
LSM7	SID85127857	longer clock period; seen with two independent siRNA pairs for the gene	phenotype reproduced by individual siRNAs	active
ARFIP2	SID85102564	shorter clock period; seen with one siRNA pair in duplicate wells	phenotype not reproduced by individual siRNAs	inconclusive
ARFIP2	SID85109787	shorter clock period; seen with one siRNA pair in duplicate wells	phenotype not reproduced by individual siRNAs	inconclusive
UBE1C	SID85122788	longer clock period; seen with two independent siRNA pairs for the gene	phenotype reproduced by individual siRNAs	active
DKFZp434O0527	SID85121156	higher rhythm amplitude; seen with two independent siRNA pairs for the gene	phenotype reproduced by individual siRNAs	active
DKFZp434O0527	SID85131980	higher rhythm amplitude; seen with two independent siRNA pairs for the gene	phenotype reproduced by individual siRNAs	active
KIAA0052	SID85116014	higher rhythm amplitude; seen with two independent siRNA pairs for the gene	phenotype reproduced by individual siRNAs	active
KIAA0052	SID85126838	higher rhythm amplitude; seen with two independent siRNA pairs for the gene	phenotype reproduced by individual siRNAs	active
CIDEC	SID85103172	higher rhythm amplitude; seen with one siRNA pair in duplicate wells	phenotype not reproduced by individual siRNAs	inconclusive
CIDEC	SID85110395	higher rhythm amplitude; seen with one siRNA pair in duplicate wells	phenotype not reproduced by individual siRNAs	inconclusive
COPS2	SID85102109	shorter clock period; seen with one siRNA pair in duplicate wells	phenotype not reproduced by individual siRNAs	inconclusive
COPS2	SID85109332	shorter clock period; seen with one siRNA pair in duplicate wells	phenotype not reproduced by individual siRNAs	inconclusive
HGFAC	SID85100154	shorter clock period; seen with one siRNA pair in duplicate wells	phenotype reproduced by individual siRNAs	active
HGFAC	SID85107377	shorter clock period; seen with one siRNA pair in duplicate wells	phenotype reproduced by individual siRNAs	active
MMP3	SID85100208	shorter clock period; seen with two independent siRNA pairs for the gene	phenotype reproduced by individual siRNAs	active
MMP3	SID85107431	shorter clock period; seen with two independent siRNA pairs for the gene	phenotype reproduced by individual siRNAs	active
PHEX	SID85100657	longer clock period; seen with two independent siRNA pairs for the gene	phenotype reproduced by individual siRNAs	active
PHEX	SID85107880	longer clock period; seen with two independent siRNA pairs for the gene	phenotype reproduced by individual siRNAs	active
FUCA1	SID85099550	shorter clock period; seen with one siRNA pair in duplicate wells	phenotype reproduced by individual siRNAs	active
FUCA1	SID85106773	shorter clock period; seen with one siRNA pair in duplicate wells	phenotype reproduced by individual siRNAs	active
IFNK	SID85103150	longer clock period; seen with two independent siRNA pairs for the gene	phenotype reproduced by individual siRNAs	active
IFNK	SID85110373	longer clock period; seen with two independent siRNA pairs for the gene	phenotype reproduced by individual siRNAs	active
PAQR4	SID85103930	longer clock period; seen with two independent siRNA pairs for the gene	phenotype reproduced by individual siRNAs	active
PAQR4	SID85111153	longer clock period; seen with two independent siRNA pairs for the gene	phenotype reproduced by individual siRNAs	active
LBX1	SID85115519	shorter clock period; seen with two independent siRNA pairs for the gene	phenotype reproduced by individual siRNAs	active
LBX1	SID85126343	shorter clock period; seen with two independent siRNA pairs for the gene	phenotype reproduced by individual siRNAs	active
CSNK1A1	SID85105388	longer clock period; seen with two independent siRNA pairs for the gene	phenotype reproduced by individual siRNAs	active
CSNK1A1	SID85112611	longer clock period; seen with two independent siRNA pairs for the gene	phenotype reproduced by individual siRNAs	active
GFAP	SID85113632	longer clock period; seen with two independent siRNA pairs for the gene	phenotype reproduced by individual siRNAs	active
GFAP	SID85124456	longer clock period; seen with two independent siRNA pairs for the gene	phenotype reproduced by individual siRNAs	active

12 consecutive records from above, for reference:
gene knocked down	PubChem SID	clock phenotype class	confirmed with single siRNAs	outcome
PWP2H	SID85125195	longer clock period; seen with two independent siRNA pairs for the gene	phenotype reproduced by individual siRNAs	active
GRM5	SID85104558	longer clock period; seen with two independent siRNA pairs for the gene	phenotype reproduced by individual siRNAs	active
GRM5	SID85111781	longer clock period; seen with two independent siRNA pairs for the gene	phenotype reproduced by individual siRNAs	active
SUCNR1	SID85104921	longer clock period; seen with two independent siRNA pairs for the gene	phenotype reproduced by individual siRNAs	active
SUCNR1	SID85112144	longer clock period; seen with two independent siRNA pairs for the gene	phenotype reproduced by individual siRNAs	active
C22orf18	SID85103622	shorter clock period; seen with two independent siRNA pairs for the gene	phenotype not reproduced by individual siRNAs	inconclusive
C22orf18	SID85110845	shorter clock period; seen with two independent siRNA pairs for the gene	phenotype not reproduced by individual siRNAs	inconclusive
DCLRE1A	SID85101969	longer clock period; seen with two independent siRNA pairs for the gene	phenotype reproduced by individual siRNAs	active
DCLRE1A	SID85109192	longer clock period; seen with two independent siRNA pairs for the gene	phenotype reproduced by individual siRNAs	active
APPBP1	SID85122746	longer clock period; seen with two independent siRNA pairs for the gene	phenotype reproduced by individual siRNAs	active
MRGPRE	SID85103861	longer clock period; seen with two independent siRNA pairs for the gene	phenotype reproduced by individual siRNAs	active
MRGPRE	SID85111084	longer clock period; seen with two independent siRNA pairs for the gene	phenotype reproduced by individual siRNAs	active

The listing continues.
gene knocked down	PubChem SID	clock phenotype class	confirmed with single siRNAs	outcome
RAP1GA1	SID85114314	longer clock period; seen with two independent siRNA pairs for the gene	phenotype reproduced by individual siRNAs	active
RAP1GA1	SID85125138	longer clock period; seen with two independent siRNA pairs for the gene	phenotype reproduced by individual siRNAs	active
YT521	SID85119610	longer clock period; seen with two independent siRNA pairs for the gene	phenotype reproduced by individual siRNAs	active
YT521	SID85130434	longer clock period; seen with two independent siRNA pairs for the gene	phenotype reproduced by individual siRNAs	active
SPRR1B	SID85114506	shorter clock period; seen with one siRNA pair in duplicate wells	phenotype reproduced by individual siRNAs	active
SPRR1B	SID85125330	shorter clock period; seen with one siRNA pair in duplicate wells	phenotype reproduced by individual siRNAs	active
ENG	SID85099654	shorter clock period; seen with one siRNA pair in duplicate wells	phenotype reproduced by individual siRNAs	active
ENG	SID85106877	shorter clock period; seen with one siRNA pair in duplicate wells	phenotype reproduced by individual siRNAs	active
MPN2	SID85104152	longer clock period; seen with two independent siRNA pairs for the gene	phenotype reproduced by individual siRNAs	active
MPN2	SID85111375	longer clock period; seen with two independent siRNA pairs for the gene	phenotype reproduced by individual siRNAs	active
BTN2A2	SID85102355	longer clock period; seen with two independent siRNA pairs for the gene	phenotype reproduced by individual siRNAs	active
BTN2A2	SID85109578	longer clock period; seen with two independent siRNA pairs for the gene	phenotype reproduced by individual siRNAs	active
EEIG1	SID85122324	longer clock period; seen with two independent siRNA pairs for the gene	not retested with individual siRNAs	
KIAA0020	SID85115228	shorter clock period; seen with one siRNA pair in duplicate wells	phenotype not reproduced by individual siRNAs	inconclusive
KIAA0020	SID85126052	shorter clock period; seen with one siRNA pair in duplicate wells	phenotype not reproduced by individual siRNAs	inconclusive
K-ALPHA-1	SID85102437	longer clock period; seen with two independent siRNA pairs for the gene	phenotype reproduced by individual siRNAs	active
K-ALPHA-1	SID85109660	longer clock period; seen with two independent siRNA pairs for the gene	phenotype reproduced by individual siRNAs	active
BAI3	SID85104711	higher rhythm amplitude; seen with one siRNA pair in duplicate wells	phenotype not reproduced by individual siRNAs	inconclusive
BAI3	SID85111934	higher rhythm amplitude; seen with one siRNA pair in duplicate wells	phenotype not reproduced by individual siRNAs	inconclusive
SH3GL2	SID85114505	shorter clock period; seen with one siRNA pair in duplicate wells	phenotype reproduced by individual siRNAs	active
SH3GL2	SID85125329	shorter clock period; seen with one siRNA pair in duplicate wells	phenotype reproduced by individual siRNAs	active
SRPRB	SID85103404	longer clock period; seen with two independent siRNA pairs for the gene	phenotype reproduced by individual siRNAs	active
SRPRB	SID85110627	longer clock period; seen with two independent siRNA pairs for the gene	phenotype reproduced by individual siRNAs	active
SERPINC1	SID85098975	shorter clock period; seen with one siRNA pair in duplicate wells	phenotype reproduced by individual siRNAs	active
SERPINC1	SID85106198	shorter clock period; seen with one siRNA pair in duplicate wells	phenotype reproduced by individual siRNAs	active
DHFR	SID85099571	shorter clock period; seen with one siRNA pair in duplicate wells	phenotype reproduced by individual siRNAs	active
DHFR	SID85106794	shorter clock period; seen with one siRNA pair in duplicate wells	phenotype reproduced by individual siRNAs	active
MGC3234	SID85118229	shorter clock period; seen with one siRNA pair in duplicate wells	phenotype reproduced by individual siRNAs	active
MGC3234	SID85129053	shorter clock period; seen with one siRNA pair in duplicate wells	phenotype reproduced by individual siRNAs	active
MSRB2	SID85116079	longer clock period; seen with two independent siRNA pairs for the gene	not retested with individual siRNAs	
MSRB2	SID85126903	longer clock period; seen with two independent siRNA pairs for the gene	not retested with individual siRNAs	
GPR78	SID85104953	shorter clock period; seen with two independent siRNA pairs for the gene	phenotype reproduced by individual siRNAs	active
GPR78	SID85112176	shorter clock period; seen with two independent siRNA pairs for the gene	phenotype reproduced by individual siRNAs	active
VMD2	SID85101276	higher rhythm amplitude; seen with one siRNA pair in duplicate wells	not retested with individual siRNAs	
VMD2	SID85108499	higher rhythm amplitude; seen with one siRNA pair in duplicate wells	not retested with individual siRNAs	
OR51B2	SID85104807	shorter clock period; seen with two independent siRNA pairs for the gene	phenotype reproduced by individual siRNAs	active
OR51B2	SID85112030	shorter clock period; seen with two independent siRNA pairs for the gene	phenotype reproduced by individual siRNAs	active
GLT25D2	SID85116036	shorter clock period; seen with one siRNA pair in duplicate wells	phenotype not reproduced by individual siRNAs	inconclusive
GLT25D2	SID85126860	shorter clock period; seen with one siRNA pair in duplicate wells	phenotype not reproduced by individual siRNAs	inconclusive
